US11458094B2, “Compositions and methods for treating pulmonary edema or lung inflammation” (priority 2018, dated 2022)
“Also recorded” adds a separate entry of the source. At least one compound was matched to its structure with a doubt left.

Experiments:
HO-1 = experiment: Western blot of HO-1 in RLE-6TN cells under hyperoxia; assay type: cell-based, rat
Description: FIG. 10. HO-1 Upregulation is required for T3-increased RLE-6TN cell survival in hyperoxia. […] The cells were then collected for Western Blot analysis. (B) The cells were incubated in 21% O2 and 5% CO2 for 72 hours in the present of HO-1 inhibitor Tin Protoporphyrin IX(10^-6M) tinT3 (10^−6M). […] Cell viability is assessed with trypan blue. The number of viable cells under specific conditions is presented as a percentage of the cell number related to hyperoxia alone. Data are mean±s.d. of three independent experiments with *=P<0.05; **=P<0.01.
(§1) The cells were lysed in lysis buffer containing 20 mM Tris·HCl (pH 7.5), 150 mM NaCl, 1 mM EDTA, 1 mM EGTA, 1% (vol/vol) Triton X-100 with protease inhibitors (1 mM PMSF, 2 μg/ml pepstatin, and 10 μg/ml each of aprotinin and leupeptin), and phosphatase inhibitors (2.5 mM sodium pyrophosphate, 1 mM β-glycerophosphate, and 1 mM Na3VO4). The lysate was drawn 10 times through a 25-gauge needle on ice for further lysis and then was centrifuged at 13,000 rpm for 15 minutes at 4° C. The supernatant was collected, and the protein concentrations were determined by use of the BCA protein assay kit (Sigma-Aldrich, St. Louis, Mo.). Immediately after this step, equal amounts of protein were subjected to Western blotting analysis.

Nrf2 = experiment: Western blot of Nrf2 (total cellular and nuclear) in RLE-6TN cells under hyperoxia; assay type: cell-based, rat
Source text: FIG. 9. […] The cells were then collected for Western Blotting analysis. (A) Cellular total protein of Nrf2. (B) Nuclear Nrf2.
FIG. 12. T3-induced increase in Nrf2 and HO-1 protein via PI3K in hyperoxia. (A) Western Blot and densitometry data for total Nrf2. (B) Western Blot and densitometry data for cytoplasmic Nrf2. (C) Western Blot and densitometry data for nuclear Nrf2.
Nuclei were extracted with NE-PER nuclear and cytoplasmic extraction reagents kit (Thermo Fisher Scientific, Inc., Waltham, Mass.) following the manufacturer's instruction.
as §1

COC[C@H]1OC(=O)c2coc3c2[C@@]1(C)C1=C(C3=O)[C@@H]2CCC(=O)[C@@]2(C)C[C@H]1OC(C)=O [wortmannin]
effect on T3-induced increase in total cellular amount of HO-1 protein (HO-1): blocked | effect on T3-induced increase in Nrf2 nuclear protein (Nrf2): blocked; also recorded: abolished | effect on T3-induced increase in Nrf2 total cellular protein (Nrf2): blocked
